The target of assay [1] is Myc-tagged BiP/GRP78 (UniProt P11021). The assay is described as follows: co-IP with 9E10 Myc antibodies, blot with Flag antibody M2; also seen with polyclonal BiP/GRP78 antibody and in the reverse direction (Flag IP, 9E10 blot); HeLa cells.
The target is the same in assay [2]. In words: co-IP with BiP/GRP78 polyclonal antibodies, blot with Flag-M2 antibodies, cotransfected HeLa cells (FIG. 11B).
The target is the same in assay [3]. In words: co-IP with 9E10 Myc antibodies; also in the reverse direction (Flag IP, 9E10 blot); HeLa cells.
Assay [4] has the same target. The assay is described as follows: co-IP with BiP/GRP78 polyclonal antibodies, blot with Flag-M2 antibodies (FIG. 11C).
Assay [5] shares this target. In words: discussion of the co-IP results.
For assay [6], the target named is BiP/GRP78 (endogenous) (human (endogenous in human HeLa cells)) (UniProt P11021). In words: co-IP with BiP/GRP78 antibodies, blot with Flag antibodies; wild type against C/F mutants; HeLa and P69 cells.

By UniProt entry, the sequences of proteins in these tests, tags left out. Residues count along the entry.
UniProt P11021, residues 19-654: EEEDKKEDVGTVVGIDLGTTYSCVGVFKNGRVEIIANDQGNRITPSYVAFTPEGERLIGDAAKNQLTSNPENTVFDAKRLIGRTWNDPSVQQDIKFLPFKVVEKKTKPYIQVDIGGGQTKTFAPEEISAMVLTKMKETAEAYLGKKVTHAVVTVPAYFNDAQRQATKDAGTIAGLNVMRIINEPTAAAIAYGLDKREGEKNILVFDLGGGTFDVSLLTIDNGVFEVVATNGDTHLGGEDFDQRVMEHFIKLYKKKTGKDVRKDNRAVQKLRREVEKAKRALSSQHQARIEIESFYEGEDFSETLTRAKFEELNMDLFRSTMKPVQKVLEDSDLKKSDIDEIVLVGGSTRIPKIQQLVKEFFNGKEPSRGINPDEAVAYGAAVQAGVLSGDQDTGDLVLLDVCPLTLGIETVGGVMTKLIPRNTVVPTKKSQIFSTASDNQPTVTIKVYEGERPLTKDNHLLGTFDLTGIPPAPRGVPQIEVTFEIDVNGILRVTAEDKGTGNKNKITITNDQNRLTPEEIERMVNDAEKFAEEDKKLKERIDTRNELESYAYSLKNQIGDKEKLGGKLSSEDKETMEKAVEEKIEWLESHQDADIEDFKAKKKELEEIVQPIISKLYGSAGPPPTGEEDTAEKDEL

Results are given in words; binding and its absence hold for the method and conditions named. In cells and extracts the contact can be indirect. Some binding calls cover weakened binding; strength is not graded here. Sequences can lack the tags named with a protein.

B1: Flag-tagged M4 (amino acids 104-206 of MDA-7/IL-24, pCMV3xFlag) (protein, not shown: small tags and cut ends)
chain: ESCYLVHTLLEFYLKTVFKNYHNRTVEVRTLKSFSTLANNFVLIVSQLQPSQENEMFSIRDSAHRRFLLFRRAFKQLDVEAALTKALGEVDILLTWMQKFYKL
For B1, the binding entry in assay [1] and in assay [2] was “binds” each time.

B2: Flag-tagged M2 (amino acids 63-206 of MDA-7/IL-24, pCMV3xFlag) (protein, not shown: small tags and cut ends)
chain: GVVPQKLWEAFWAVKDTMQAQDNITSARLLQQEVLQNVSDAESCYLVHTLLEFYLKTVFKNYHNRTVEVRTLKSFSTLANNFVLIVSQLQPSQENEMFSIRDSAHRRFLLFRRAFKQLDVEAALTKALGEVDILLTWMQKFYKL
Consider B2, for which the binding entry in assay [3], in assay [4] and in assay [5] was “binds” in each case.

B3: Flag-tagged M1 (amino acids 48-206 of MDA-7/IL-24, pCMV3xFlag) (protein, not shown: small tags and cut ends)
chain: GAQGQEFHFGPCQVKGVVPQKLWEAFWAVKDTMQAQDNITSARLLQQEVLQNVSDAESCYLVHTLLEFYLKTVFKNYHNRTVEVRTLKSFSTLANNFVLIVSQLQPSQENEMFSIRDSAHRRFLLFRRAFKQLDVEAALTKALGEVDILLTWMQKFYKL
As to B3, the binding result in assay [3] and in assay [4] was “binds” each time.

B4: Flag-tagged M3 (amino acids 80-206 of MDA-7/IL-24, pCMV3xFlag) (protein, not shown: small tags and cut ends)
chain: QAQDNITSARLLQQEVLQNVSDAESCYLVHTLLEFYLKTVFKNYHNRTVEVRTLKSFSTLANNFVLIVSQLQPSQENEMFSIRDSAHRRFLLFRRAFKQLDVEAALTKALGEVDILLTWMQKFYKL
Regarding B4, the binding result in assay [3], in assay [4] and in assay [5] was “binds” each time.

B5: Flag-tagged MDA-7/IL-24 (full-length, pCMV3xFlag) (ligand, not shown: small tags and cut ends)
chain: QEFHFGPCQVKGVVPQKLWEAFWAVKDTMQAQDNITSARLLQQEVLQNVSDAESCYLVHTLLEFYLKTVFKNYHNRTVEVRTLKSFSTLANNFVLIVSQLQPSQENEMFSIRDSAHRRFLLFRRAFKQLDVEAALTKALGEVDILLTWMQKFYKL
B5: the binding result in assay [1], in assay [6] and in assay [2] was “binds” throughout.
